Positions count from the first letter of the chain named. These are yes or no findings as the source states them, for the method shown. Binding seen in cells or lysates may run through a third protein. For part of these data: Binding can be weak; no strength is given. For part of these data: Sequences can lack the tags named with a protein.
Tests used:
Test in all cases: split reporter
[1] = molecular target: Arabidopsis autophagy-related gene product 8e (ATG8e), nYFP fusion (Arabidopsis) (UniProt Q8S926)
[2] = molecular target: T1, ATG8e G118A (Arabidopsis), nYFP fusion (Arabidopsis) (UniProt Q8S926)
T1 sequence: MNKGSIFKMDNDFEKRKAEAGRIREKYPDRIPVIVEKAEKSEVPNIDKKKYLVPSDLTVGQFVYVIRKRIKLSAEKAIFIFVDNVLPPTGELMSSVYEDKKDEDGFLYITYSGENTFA

[3] = molecular target: T2, ATG8e L52A (Arabidopsis), nYFP fusion (Arabidopsis) (UniProt Q8S926)
T2 sequence: T1 sequence with L52A, A118G

binding [1]: binds
binding [2]: no binding
binding [3]: no binding
Substance: Nicotiana tabacum Regulator of Gene Silencing Calmodulin (rgsCaM), C-terminal cYFP fusion (from UniProt Q9AXG2)
